Values from PubChem BioAssay AID1259254 (NCATS, 2017).
Aim: 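Finding genes that stop cells copying their DNA twice in one cycle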 (primary screen). Cells: human HCT116 colorectal cancer cells. Knock-down reagent: single siRNA against human genes. Timing: 3 days. Measurement: 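Imaged Hoechst DNA stain sorts each cell into a cycle phase by DNA amount; per plate, G2 fraction set to 0% for non-targeting and 100% for GMNN siRNA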. Direction: G2 robust z-score: higher = more G2 cells, more excess DNA replication. Rule for the call: 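An siRNA counts as active if its G2 robust z-score lies at least 5 MADs above the screen median; here such calls match roughly 38% of GMNN control or more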.
The deposit covers about 59,000 reagents; below is an unselected part. About 1,550 of them (2.6%) were called active. 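G2 share is only a proxy for re-replication; each gene was hit by three separate siRNAs, and active genes were retested.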 A number with no mark means an inactive call. Reagents against one gene are numbered here. Not all columns of the deposit are shown. The record does not give: the amount of reagent.

BTBD2 #1 | G2 robust z-score: 0.471
BTBD2 #2 | G2 robust z-score: -0.975
BTBD2 #3 | G2 robust z-score: -0.832
PAX2 #1 | G2 robust z-score: 3.5
PAX2 #2 | G2 robust z-score: -0.994
PAX2 #3 | G2 robust z-score: -0.336
CD86 #1 | G2 robust z-score: -0.723
CD86 #2 | G2 robust z-score: 0.96
CD86 #3 | G2 robust z-score: -0.957
TPR #1 | G2 robust z-score: -1.2
TPR #2 | G2 robust z-score: -1.3
TPR #3 | G2 robust z-score: -0.957
NXF2B #1 | G2 robust z-score: -0.463
NXF2B #2 | G2 robust z-score: -1.02
NXF2B #3 | G2 robust z-score: -0.205
METTL5 #1 | G2 robust z-score: -1.08
METTL5 #2 | G2 robust z-score: 1.31
METTL5 #3 | G2 robust z-score: -0.654
CYB5R2 #1 | G2 robust z-score: 0.6
CYB5R2 #2 | G2 robust z-score: 0.328
CYB5R2 #3 | G2 robust z-score: 0.345
ID4 #1 | G2 robust z-score: -0.358
ID4 #2 | G2 robust z-score: 0.326
ID4 #3 | G2 robust z-score: -0.47
LAMA1 #1 | G2 robust z-score: -0.827
LAMA1 #2 | G2 robust z-score: -0.18
LAMA1 #3 | G2 robust z-score: 4.51
SMPD5 #1 | G2 robust z-score: -0.103
SMPD5 #2 | G2 robust z-score: -0.845
SMPD5 #3 | G2 robust z-score: -0.867

Entries listed so far whose target name starts with C or c:
CD86 #1 | G2 robust z-score: -0.723
CD86 #2 | G2 robust z-score: 0.96
CD86 #3 | G2 robust z-score: -0.957
CYB5R2 #1 | G2 robust z-score: 0.6
CYB5R2 #2 | G2 robust z-score: 0.328
CYB5R2 #3 | G2 robust z-score: 0.345
